Source: US20260042802A1, “POLYPEPTIDE AND USE THEREOF” (priority 2024, published 2026)
For at least one compound, name, drawing or mass did not settle the structure. Where a SMILES comes first, the peptide text is derived from it. Bridges are numbered along the chain shown (N, C = ends).

The chains behind the UniProt entries cited, without tags or fusion partners.
UniProt Q15858, whole entry: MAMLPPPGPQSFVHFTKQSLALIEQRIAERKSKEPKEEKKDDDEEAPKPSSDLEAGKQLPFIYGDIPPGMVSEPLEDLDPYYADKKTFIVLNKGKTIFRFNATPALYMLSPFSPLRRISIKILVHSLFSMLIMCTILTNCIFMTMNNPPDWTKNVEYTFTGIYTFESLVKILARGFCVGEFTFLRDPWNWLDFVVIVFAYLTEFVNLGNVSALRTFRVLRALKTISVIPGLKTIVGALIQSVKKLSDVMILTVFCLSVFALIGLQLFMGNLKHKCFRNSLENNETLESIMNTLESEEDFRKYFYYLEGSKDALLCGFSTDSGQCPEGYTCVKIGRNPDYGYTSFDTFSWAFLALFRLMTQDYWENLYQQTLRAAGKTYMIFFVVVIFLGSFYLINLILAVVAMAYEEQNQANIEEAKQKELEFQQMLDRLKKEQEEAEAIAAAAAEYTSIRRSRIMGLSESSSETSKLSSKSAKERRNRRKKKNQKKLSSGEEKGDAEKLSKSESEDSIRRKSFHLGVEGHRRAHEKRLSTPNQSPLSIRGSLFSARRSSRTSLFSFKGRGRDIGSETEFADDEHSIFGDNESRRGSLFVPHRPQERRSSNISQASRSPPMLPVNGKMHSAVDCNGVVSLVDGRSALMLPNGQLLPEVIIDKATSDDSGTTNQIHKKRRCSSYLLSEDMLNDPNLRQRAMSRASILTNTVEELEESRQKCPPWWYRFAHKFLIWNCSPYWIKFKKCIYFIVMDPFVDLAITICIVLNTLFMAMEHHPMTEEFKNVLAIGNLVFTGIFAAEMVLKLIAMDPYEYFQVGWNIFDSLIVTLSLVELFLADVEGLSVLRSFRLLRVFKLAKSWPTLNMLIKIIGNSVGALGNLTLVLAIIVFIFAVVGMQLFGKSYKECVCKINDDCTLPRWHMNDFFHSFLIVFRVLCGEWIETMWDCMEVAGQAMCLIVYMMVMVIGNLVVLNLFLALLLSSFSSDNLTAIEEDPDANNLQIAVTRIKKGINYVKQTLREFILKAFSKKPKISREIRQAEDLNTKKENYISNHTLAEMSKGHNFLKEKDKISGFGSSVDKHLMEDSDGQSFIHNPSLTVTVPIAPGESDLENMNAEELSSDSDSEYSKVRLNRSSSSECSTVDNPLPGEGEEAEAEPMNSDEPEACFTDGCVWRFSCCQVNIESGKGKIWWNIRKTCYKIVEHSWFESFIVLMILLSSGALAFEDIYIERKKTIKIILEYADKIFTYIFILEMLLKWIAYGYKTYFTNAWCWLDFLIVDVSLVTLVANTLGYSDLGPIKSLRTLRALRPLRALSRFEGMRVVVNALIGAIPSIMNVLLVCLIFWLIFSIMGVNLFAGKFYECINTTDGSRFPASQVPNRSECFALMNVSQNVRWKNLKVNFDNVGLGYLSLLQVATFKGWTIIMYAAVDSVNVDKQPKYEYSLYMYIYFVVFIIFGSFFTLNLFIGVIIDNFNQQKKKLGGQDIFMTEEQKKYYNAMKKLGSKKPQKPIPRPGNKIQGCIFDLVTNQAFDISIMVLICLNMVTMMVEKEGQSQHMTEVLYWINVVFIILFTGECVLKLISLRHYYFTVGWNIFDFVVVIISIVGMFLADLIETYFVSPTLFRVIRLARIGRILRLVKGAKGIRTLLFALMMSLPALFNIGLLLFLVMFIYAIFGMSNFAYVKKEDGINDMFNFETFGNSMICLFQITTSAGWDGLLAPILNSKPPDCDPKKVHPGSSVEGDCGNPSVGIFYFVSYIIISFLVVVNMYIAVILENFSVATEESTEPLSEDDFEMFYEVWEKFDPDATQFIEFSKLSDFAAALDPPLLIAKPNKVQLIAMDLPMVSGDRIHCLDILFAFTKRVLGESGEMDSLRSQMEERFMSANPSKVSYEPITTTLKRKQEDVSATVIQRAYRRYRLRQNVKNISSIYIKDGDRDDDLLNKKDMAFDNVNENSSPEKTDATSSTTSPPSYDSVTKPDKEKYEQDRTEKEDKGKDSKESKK

Target: T1, Nav1.7 channels (Homo sapiens, UniProt Q15858)
T1 construct: expressed in transfected cells; host or cells: HEK293
Experiment: Whole-cell patch clamp on Nav1.7 overexpressing HEK293 cells
Type: cell-based
Settings: read-out: IC50 for inhibiting the peak current of Nav1.7; 30, 100, 300 nM; Hill equation fit; n=7
Procedure: The recording electrode used in the present example is a glass microelectrode, which is prepared as follows: The glass electrode blanks (outer diameter of 1.50 mm, inner diameter of 0.84 mm) are prepared into single-tube glass microelectrodes with tip diameters of 1-2 μm in four steps using the P-1000 Microelectrode Horizontal Puller for subsequent experiments. Be careful not to touch the heated platinum sheet in the center when pulling the electrode, and be careful not to touch the tip of the pulled electrode to prevent the tip from breaking. Since the tip of the glass microelectrode is highly susceptible to dust attraction, it is generally prepared for use now and should not be left overnight. […]
In the patch clamp experiments, the measured sodium currents are corrected for leakage currents, and the primary data of the experiments are recorded using Clampfit 10.6, and the data acquisition is performed by the pCLAMP software. […] The average value of the peak current is thus calculated as the control current amplitude. Then 3-5 sweeps in which the current is in a stable state after the addition of polypeptide are selected and analyzed, and the average value of the residual peak current is calculated as the residual current amplitude. […]

Question: Which IC50 does the source give for `CSCC[C@@H]1NC(=O)CNC(=O)[C@H](CCC(=O)O)NC(=O)[C@@H]2CSSC[C@H](NC(=O)[C@H](Cc3ccc(O)cc3)NC(C)=O)C(=O)N[C@@H](CCC(N)=O)C(=O)N[C@@H](CCCCN)C(=O)N[C@@H](Cc3ccccc3)C(=O)N[C@@H](CC(C)C)C(=O)N[C@@H](C)C(=O)N3CCC[C@H]3C(=O)N[C@H]3CSSC[C@H](NC(=O)[C@H](CCC(=O)O)NC1=O)C(=O)N[C@@H](CCCCN)C(=O)N[C@@H](CC(C)C)C(=O)N[C@@H](Cc1c[nH]c4ccccc14)C(=O)N[C@H](C(=O)N[C@@H](CCCCN)C(=O)N[C@@H](CCCCN)C(=O)N[C@@H](CCCCN)C(=O)N[C@@H](CC(C)C)C(=O)N[C@@H](Cc1c[nH]c4ccccc14)C(N)=O)CSSC[C@H](NC(=O)[C@H](CCCCN)NC(=O)[C@H](CCCNC(=N)N)NC(=O)[C@H](CCC(=O)O)NC(=O)[C@H](CO)NC(=O)[C@H](CC(=O)O)NC3=O)C(=O)N2` [PPN-01] (Ac-YCQKFLAPCDSERKCCEGMECKLWCKKKLW-NH2; disulfide 2-16, 9-21, 15-25) here?
Answer: 52.7 ± 7.8 nM
